± gives the standard deviation of the averaged measurements. Some of the results follow.

The experiment addresses T1, RAB9A (UniProt P51151).
T1 sequence (whole entry): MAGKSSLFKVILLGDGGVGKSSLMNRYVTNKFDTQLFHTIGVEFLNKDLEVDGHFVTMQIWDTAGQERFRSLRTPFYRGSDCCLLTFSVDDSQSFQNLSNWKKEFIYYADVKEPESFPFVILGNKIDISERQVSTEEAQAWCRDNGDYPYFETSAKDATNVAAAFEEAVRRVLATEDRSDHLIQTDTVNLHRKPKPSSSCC
The experiment is described as follows: NP40-soluble protein abundance relative to vehicle (solubility fold change) (ratio); higher = more soluble protein in presence of GTP. As for the experimental part:
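Solubility proteome profiling in Jurkat crude lysate. Lysate was treated with Mg-GTP (0.1-10 mM) for 10 min at room temperature and 3 min at 37 °C, then solubilised with 0.8% NP40 and benzonase, followed by ultracentrifugation. Proteins were quantified by TMT10 LC-MS/MS; the value is the NP40-soluble abundance relative to the NP40-processed vehicle, from 3 independent experiments.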

As for `Nc1nc2c(ncn2[C@@H]2O[C@H](COP(=O)(O)OP(=O)(O)OP(=O)(O)O)[C@@H](O)[C@H]2O)c(=O)[nH]1` [guanosine triphosphate], the NP40-soluble protein abundance came to 0.941 ± 0.065 (concentration: 0.1mM); 0.98 ± 0.056 (concentration: 0.5mM); 0.859 ± 0.053 (concentration: 1mM); 0.902 ± 0.076 (concentration: 2mM); 0.841 ± 0.042 (concentration: 4mM); 0.799 ± 0.069 (concentration: 6mM). Besides, the NP40-soluble protein abundance (concentration: 8mM) turned out to be 0.82 ± 0.057 and the NP40-soluble protein abundance (concentration: 10mM) amounted to 0.805 ± 0.068.

The values above are taken from the supplement of paper PMC6411743.
